The record followed here is publication PMC10815869.

Holding throughout (test): size exclusion chromatography
In general terms: In gel filtration, larger molecules generally elute earlier.

The target in series [1] is T1, mut3 NMAD-1A21-291 E109K,Q112K,Q114K (Caenorhabditis elegans) (UniProt Q8MNT9).
T1 sequence (looked up): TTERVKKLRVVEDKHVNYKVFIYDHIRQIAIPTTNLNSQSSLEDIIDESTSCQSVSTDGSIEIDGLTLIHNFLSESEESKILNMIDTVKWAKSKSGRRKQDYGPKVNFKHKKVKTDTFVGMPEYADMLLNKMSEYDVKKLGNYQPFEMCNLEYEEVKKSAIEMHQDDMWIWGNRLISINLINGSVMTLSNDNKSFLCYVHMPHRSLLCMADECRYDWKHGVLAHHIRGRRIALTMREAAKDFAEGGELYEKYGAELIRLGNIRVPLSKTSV
The conditions noted are these: 10 mM a-KG, 0.5 mM MnCl2, increased affinity vs WT, SEC: 25 mM HEPES pH 8.0, 100 mM NaCl, 5 mM beta-mercaptoethanol, recombinant protein, residues 21-291, protein details: N-terminal 6xHis with TEV site (kept).

Series [2] has as its target T2, mut3 NMAD-1A1-291 E109K,Q112K,Q114K (Caenorhabditis elegans) (UniProt Q8MNT9).
T2 sequence (looked up): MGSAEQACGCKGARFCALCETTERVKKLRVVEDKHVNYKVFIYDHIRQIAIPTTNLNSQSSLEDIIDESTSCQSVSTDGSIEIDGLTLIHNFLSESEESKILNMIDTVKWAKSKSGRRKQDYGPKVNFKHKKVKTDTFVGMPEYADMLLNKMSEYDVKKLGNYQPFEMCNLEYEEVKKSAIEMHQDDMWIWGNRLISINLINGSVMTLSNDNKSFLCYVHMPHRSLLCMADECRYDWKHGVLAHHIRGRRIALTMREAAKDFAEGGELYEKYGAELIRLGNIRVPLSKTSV
The conditions noted are these: 10 mM a-KG, 0.5 mM MnCl2, increased affinity vs WT, SEC: 25 mM HEPES pH 8.0, 100 mM NaCl, 5 mM beta-mercaptoethanol, recombinant protein, residues 1-291, protein details: 6xHis removed by TEV.

In series [3] the target is T3, WT NMAD-1A1-291 (Caenorhabditis elegans) (UniProt Q8MNT9).
T3 sequence (looked up): T2 sequence (looked up) with K109E, K112Q, K114Q
The conditions noted are these: comparison with mut3, DNA used for WT not stated explicitly; SEC: 25 mM HEPES pH 8.0, 100 mM NaCl, 5 mM beta-mercaptoethanol, 10 mM a-KG, 0.5 mM MnCl2; recombinant protein; residues 1-291; protein details: N-terminal 6xHis with TEV site (kept).

Numbering of substitutions follows the chain as printed. Construct, isoform or probe ends are uncertain for at least one entry. For part of these data: Weaker means in comparison with the reference protein, sequence or condition of that experiment. At least one verdict rests on a figure or table, not on a statement of the authors. Where a protein sequence is shown, tags need not be part of it.

In the case of “GCAGCAACAGAAGAGGATCTCA / CTGAGATCCTCTTCTGTTGCTG [(G/C) 21 bp dsDNA, 5'-overhang]”, the binding result in series [1] was “binds”; in series [2], “binds”; in series [3], “binds more weakly”.
